The record followed here is publication PMC7994622, “Eryptosis and Malaria: New Experimental Guidelines and Re-Evaluation of the Antimalarial Potential of Eryptosis Inducers” (Frontiers in Cellular and Infection Microbiology, 2021).

Where a name gives a salt, the structure may show the parent alone. Read-outs that look alike come from different tables or passages of the source. Where only a bound is given, the exact number is not on record here.

This assay has as its system P. falciparum. The assay can be described thus: Parasite growth inhibition assay (SYBR Gold, 72 h). The format is cell-based, Plasmodium falciparum 3D7. As for the experimental part: Use of human erythrocytes was approved by the La Trobe University Research Ethics Committee (ethics number HEC17‐013) and an Australian Red Cross Blood Service Agreement (Deed 19-05VIC-01). Red blood cell populations are intrinsically heterogeneous and variable between donors, therefore each experiment presented in this study was conducted a minimum of three independent times, each with a different batch of blood. Human red cells were processed as soon as possible upon collection to minimize erythrocyte aging. Naïve (non-infected) erythrocytes and Plasmodium falciparum 3D7-infected erythrocytes were cultured at 37°C, in low oxygen conditions (1% O2, 5% CO2, 94% N2), at 4% or 0.4% hematocrit, in incomplete RPMI media (iRPMI: RPMI 1640 HEPES, 50 mg/L hypoxanthine, 10 mg/L gentamicin, pH 6.74), complete RPMI media (cRPMI: incomplete RPMI supplemented with 2.25 g/L sodium bicarbonate and 5 g/L AlbuMAX II), or Ringer solution (1mM CaCl2, 5mM glucose, 32 mM HEPES pH 7.4, 5 mM KCl, 1mM MgSO4, 125mM NaCl). P. falciparum standard in vitro culture conditions were conducted as previously described ([Trager and Jensen, 1976]).
Compound-induced parasite growth inhibition was measured as previously described ([Morahan et al., 2020]). Briefly, an asynchronous parasite culture at 0.25% parasitemia and 2% hematocrit was incubated in a 96-well plate with a two-fold serial dilution of compound over 72 h in standard culture conditions (cRPMI, 37°C, low oxygen). Compounds (at 10 mM in DMSO) were added to the first well of the dilution series to produce a 50 µM drug concentration (and 0.5% (v/v) DMSO) and diluted two-fold until a concentration of 0.19 nM compound was reached. Each condition was conducted in triplicates, subject to a freeze/thaw cycle and incubated with the DNA intercalant SYBR Gold following manufacturer instructions (SYBR™ Gold Nucleic Acid Stain, Invitrogen). The average fluorescence between triplicates was measured at 495 nm using a CLARIOstar® microplate reader and analyzed as a proxy of parasite replication.

What is called IC50 is the midpoint of a concentration-inhibition curve. Consider `CCCCc1oc2ccccc2c1C(=O)c1cc(I)c(OCCN(CC)CC)c(I)c1` [Amiodarone, amiodarone HCl], for which the IC50 (Plasmodium falciparum, asynchronous culture, cRPMI, up to 50 µM, N=5, read-out: P. falciparum IC50) was ~2000 nM; the IC50 (asynchronous culture, cRPMI, up to 50 µM, N=5, listed as amiodarone, read-out: P. falciparum IC50) was ≤ 2000 nM; the IC50 (asynchronous culture, cRPMI, up to 50 µM, N=5, read-out: P. falciparum IC50) was 2100 nM.
For the molecule `CC(C)(C)CC(C)(C)c1ccc(OCCOCC[N+](C)(C)Cc2ccccc2)cc1` [Benzethonium, benzethonium chloride], the IC50 by setting is: (read-out: P. falciparum IC50, asynchronous culture, cRPMI, up to 50 µM, N=5) 490 nM; (read-out: P. falciparum IC50, asynchronous culture, cRPMI, up to 50 µM, N=5, listed as benzethonium) ≤ 2000 nM.
